PubChem BioAssay AID652243 – Drosophila RNAi Screening Center, 2013
The deposit covers about 24,000 reagents; this is an unselected part of those with a known target gene and a result. Of all reagents, 246 (1%) were called active. 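Plates not normalised; calls are printed but the firefly/Renilla ratio behind them is not deposited; fold cut for lowering reported inconsistently.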 Raw values are not corrected between plates. Reagents against one gene are numbered here. Names joined by + are all predicted targets of the reagent. No sequences are given here. Not given: the amount of reagent.

- Aim: 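Fly regulators of androgen-dependent reporter output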 (primary screen)
- System: Drosophila S2R+ cells
- Knock-down reagent: long dsRNA against Drosophila genes
- Duration: 72 h (48 h, then 24 h hormone)
- Treatment: synthetic androgen R1881 at 10 nM for 24 h
- Measured: 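Per-well raw luminescence of the androgen-driven firefly reporter and of the Renilla control, two replicates each, without normalisation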
- Reading the numbers: firefly reporter light: higher = more light from androgen-responsive reporter; Renilla control light: higher = more constitutive control signal (cell number, transfection)
- Hit rule: 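Across duplicate plates, a knock-down whose log firefly/Renilla ratio shifted a set fold down or up from the GFP/LacZ control mean was a hit; the downward cut appears as both 1.5 and 3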
- Meaning of the calls: active = hit: reporter lowered or raised; inactive = no hit

Target gene	dsRNA no.	firefly reporter light, replicate 1	firefly reporter light, replicate 2	Renilla control light, replicate 1	Renilla control light, replicate 2	outcome
CG18327	1	47722	41360	1.31e6	1.31e6	inactive
CG18327	2	8.02e5	5.58e5	9.48e5	7.66e5	inactive
CG12159	1	1.54e5	2.27e5	1.73e6	1.48e6	inactive
CG3597	1	1.21e5	51335	8.40e5	6.17e5	inactive
CG3597	2	5.71e5	7.81e5	1.06e6	1.17e6	inactive
CG14212	1	1.25e5	1.04e5	3.61e5	2.79e5	inactive
CG14212	2	5.05e5	5.04e5	7.85e5	7.68e5	inactive
Sin1	1	1.20e6	1.39e6	2.08e6	2.41e6	inactive
Tap42	1	1.51e5	1.91e5	9.52e5	1.24e6	inactive
Tap42	2	1.08e6	7.53e5	9.58e5	9.29e5	inactive
fuss	1	2.90e5	3.47e5	4.68e6	4.09e6	inactive
fuss	2	1.24e5	1.07e5	8.76e5	8.42e5	active
Pif1	1	8.80e5	1.16e6	2.41e6	2.20e6	inactive
JYalpha (retired record) + JYalpha	1	5.10e5	5.92e5	2.67e6	2.79e6	inactive
Dgp-1	1	1.40e5	1.58e5	1.47e6	1.47e6	inactive
be	1	1.02e5	1.20e5	1.35e6	1.29e6	inactive
be	2	3.52e5	4.30e5	3.07e6	3.09e6	inactive
be	3	5.60e5	4.90e5	2.66e6	3.40e6	inactive
Mvd	1	57782	1.04e5	4.48e5	5.61e5	inactive
Nos	1	7.39e5	6.33e5	2.48e6	1.82e6	inactive
stau	1	6.72e5	6.09e5	8.78e5	5.99e5	inactive
Pgant7	1	70391	1.15e5	4.46e5	7.05e5	inactive
CG7024	1	3.21e5	2.85e5	3.82e6	3.36e6	inactive
CG7024	2	3.00e5	2.39e5	5.05e5	5.94e5	inactive

Called active, of those listed so far:
Target gene	dsRNA no.	firefly reporter light, replicate 1	firefly reporter light, replicate 2	Renilla control light, replicate 1	Renilla control light, replicate 2	outcome
fuss	2	1.24e5	1.07e5	8.76e5	8.42e5	active
